# Test system: C57BL/6J male mice
# Assay: Long term memory for object recognition
# Assay type: in vivo
# Settings: s.c. 3, 10, 30 mg/kg
# Method: C57BL/6J male mice were handled 1-2 min for 5 days and were habituated to the experimental apparatus 5 min a day for 4 consecutive days in the absence of objects. […] 24-h later mice were tested for memory retention (5 min) using the object recognition memory task (ORM), in which a familiar object was replaced with a novel one. All training and testing trials were videotaped and analyzed by individuals blind to the treatment condition and the genotype of subjects. A mouse was scored as exploring an object when its head was oriented toward the object within a distance of 1 cm or when the nose was touching the object. The relative exploration time was recorded and expressed by a discrimination index [DI=(tnovel−tfamiliar)/(tnovel+tfamiliar)×100].
smiles,measurement,value
Cc1ccc(C(=O)NCCCCCC(=O)Nc2ccccc2N)cc1 [RGFP 109],dose dependence of the effect on long-term memory,Dose dependent effects

# Source: patent US10059723B2 (BIOMARIN PHARMACEUTICAL INC., priority 2011, dated 2018)
